Several values for one entry are separate records, joined by “and”; a condition that tells them apart may be missing. Equal values may be shown once.
Test system: hESC-CM
Assay: Apelin peptide secretion ELISA
Type: cell-based, human
Settings: single replicates

## Apelin
R/H168^4.64
  Secretion, Apelin: 0.2218 ng/mL and 0.2683 ng/mL and 0.4082 ng/mL
WT
  Secretion, Apelin: 0.0916 ng/mL and 0.08 ng/mL and 0.1733 ng/mL and 0.0984 ng/mL and 0.0688 ng/mL and 0.0609 ng/mL
